The text below walks through data of PMC12496174.

This assay has as its target T1, PLPPR3 S351 phospho-peptide LKRApSVDVDLLA
T1 sequence (peptide, phosphoserine (pS) at S351, the fifth residue of the peptide): LKRASVDVDLLA
Put plainly: affinity purification with mass spectrometry; PLPPR3 pS351 or S351 peptide coupled to Sulfolink columns; 400 ul fresh adult mouse brain lysate (Ripa buffer) in 1600 ul PBS, 1.5 hours at room temperature; washed four times with PBS; eluted with 0.2 M glycine-HCl pH 2.5; SDS-PAGE, in-gel trypsin digest, LC-MS/MS, label-free quantification; four biological replicates; only the target purified.

Results are given in words; binding and its absence hold for the method and conditions named. In cells and extracts the contact can be indirect. A yes stands for co-enrichment or nearness to the bait. Other partners may have been found.

B1: brain acid soluble protein 1 (BASP1), endogenous in adult mouse brain lysate (protein, UniProt Q91XV3 1-226)
chain: MGGKLSKKKKGYNVNDEKAKDKDKKAEGAGTEEEGTPKESEPQAAADATEVKESTEEKPKDAADGEAKAEEKEADKAAAAKEEAPKAEPEKSEGAAEEQPEPAPAPEQEAAAPGPAAGGEAPKAGEASAESTGAADGAAPEEGEAKKTEAPAAAGPEAKSDAAPAASDSKPSSAEPAPSSKETPAASEAPSSAAKAPAPAAPAAAEPQAEAPAAAASSEQSVAVKE
Turning to B1, the binding result is “binds”.
